Experimental data: PubChem BioAssay AID1259254 (NCATS, 2017)
Test: 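Finding genes that stop cells copying their DNA twice in one cycle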 (primary screen). Cells: human HCT116 colorectal cancer cells. Reagent: single siRNA against human genes. Duration: 3 days. Measurement: 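Imaged Hoechst DNA stain sorts each cell into a cycle phase by DNA amount; per plate, G2 fraction set to 0% for non-targeting and 100% for GMNN siRNA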. Scale: G2 robust z-score and G2 cells, % of GMNN control: higher = more G2 cells, more excess DNA replication. Rule for the call: 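Active siRNAs have a G2 robust z of 5 or more median absolute deviations over the median, which in these data means about 38% or higher of GMNN control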.
The deposit covers about 59,000 reagents; shown is a random part of them. In the full data, about 1,550 (2.6%) were called active. 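G2 share is only a proxy for re-replication; each gene was hit by three separate siRNAs, and active genes were retested.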 The numbers tell different reagents against one gene apart. Not all columns of the deposit are shown. Reagent sequences are not shown. The record does not give: the amount of reagent.

What is on record for SPRR2B (small proline rich protein 2B) #1?
G2 robust z-score: 1.52; G2 cells, % of GMNN control: 13.6; activity call: inactive

Which result is listed for SPRR2B (small proline rich protein 2B) #2?
G2 robust z-score: 3.1; G2 cells, % of GMNN control: 24.8; activity call: inactive

For SPRR2B (small proline rich protein 2B) #3, what does the deposit list?
G2 robust z-score: 4.57; G2 cells, % of GMNN control: 35.1; activity call: inactive

How did the screen score SYT14 (synaptotagmin 14) #1?
G2 robust z-score: 6.54; G2 cells, % of GMNN control: 49; activity call: active

With SYT14 (synaptotagmin 14) #2, what was measured?
G2 robust z-score: 1.03; G2 cells, % of GMNN control: 10.2; activity call: inactive

With SYT14 (synaptotagmin 14) #3, what does the deposit list?
G2 robust z-score: 2.63; G2 cells, % of GMNN control: 21.5; activity call: inactive

What is on record for CEP57L1 (centrosomal protein 57 like 1) #1?
G2 robust z-score: 0.0911; G2 cells, % of GMNN control: 3.61; activity call: inactive

For CEP57L1 (centrosomal protein 57 like 1) #2, what does the deposit list?
G2 robust z-score: -0.569; G2 cells, % of GMNN control: -1.04; activity call: inactive

For CEP57L1 (centrosomal protein 57 like 1) #3, how do the results read?
G2 robust z-score: 0.201; G2 cells, % of GMNN control: 4.38; activity call: inactive

What is on record for BCL6B (BCL6B transcription repressor) #1?
G2 robust z-score: -0.505; G2 cells, % of GMNN control: -0.586; activity call: inactive

For BCL6B (BCL6B transcription repressor) #2, what was measured?
G2 robust z-score: -0.389; G2 cells, % of GMNN control: 0.232; activity call: inactive

For BCL6B (BCL6B transcription repressor) #3, what was measured?
G2 robust z-score: 1.25; G2 cells, % of GMNN control: 11.8; activity call: inactive

For FLG (filaggrin) #1, what was measured?
G2 robust z-score: 0.19; G2 cells, % of GMNN control: 4.31; activity call: inactive

For FLG (filaggrin) #2, what does the deposit list?
G2 robust z-score: -1.01; G2 cells, % of GMNN control: -4.14; activity call: inactive

What is on record for FLG (filaggrin) #3?
G2 robust z-score: 0.222; G2 cells, % of GMNN control: 4.53; activity call: inactive

For RNF225 (ring finger protein 225) #1, what does the deposit list?
G2 robust z-score: 0.133; G2 cells, % of GMNN control: 3.9; activity call: inactive

What is on record for RNF225 (ring finger protein 225) #2?
G2 robust z-score: -0.452; G2 cells, % of GMNN control: -0.209; activity call: inactive

Which result is listed for RNF225 (ring finger protein 225) #3?
G2 robust z-score: -0.463; G2 cells, % of GMNN control: -0.293; activity call: inactive

For TMEM65 (transmembrane protein 65) #1, what was measured?
G2 robust z-score: -0.147; G2 cells, % of GMNN control: 1.93; activity call: inactive

With TMEM65 (transmembrane protein 65) #2, what does the deposit list?
G2 robust z-score: -0.85; G2 cells, % of GMNN control: -3.02; activity call: inactive

What is on record for TMEM65 (transmembrane protein 65) #3?
G2 robust z-score: 1.57; G2 cells, % of GMNN control: 14; activity call: inactive

What is on record for PLIN5 (perilipin 5) #1?
G2 robust z-score: 2.08; G2 cells, % of GMNN control: 17.6; activity call: inactive

For PLIN5 (perilipin 5) #2, what was measured?
G2 robust z-score: 0.0165; G2 cells, % of GMNN control: 3.08; activity call: inactive

What is on record for PLIN5 (perilipin 5) #3?
G2 robust z-score: 0.189; G2 cells, % of GMNN control: 4.3; activity call: inactive

What is on record for DCAF11 (DDB1 and CUL4 associated factor 11) #1?
G2 robust z-score: -1.12; G2 cells, % of GMNN control: -4.89; activity call: inactive

With DCAF11 (DDB1 and CUL4 associated factor 11) #2, what does the deposit list?
G2 robust z-score: -0.54; G2 cells, % of GMNN control: -0.83; activity call: inactive

With DCAF11 (DDB1 and CUL4 associated factor 11) #3, what does the deposit list?
G2 robust z-score: -0.273; G2 cells, % of GMNN control: 1.04; activity call: inactive

For TRIM15 (tripartite motif containing 15) #1, what does the deposit list?
G2 robust z-score: -1.22; G2 cells, % of GMNN control: -5.63; activity call: inactive

With TRIM15 (tripartite motif containing 15) #2, what does the deposit list?
G2 robust z-score: -0.342; G2 cells, % of GMNN control: 0.564; activity call: inactive

With TRIM15 (tripartite motif containing 15) #3, what does the deposit list?
G2 robust z-score: 1.13; G2 cells, % of GMNN control: 10.9; activity call: inactive

Records above whose target name begins with P or p:
PLIN5 (perilipin 5) #1 — G2 robust z-score = 2.08; G2 cells, % of GMNN control = 17.6; activity call = inactive
PLIN5 (perilipin 5) #2 — G2 robust z-score = 0.0165; G2 cells, % of GMNN control = 3.08; activity call = inactive
PLIN5 (perilipin 5) #3 — G2 robust z-score = 0.189; G2 cells, % of GMNN control = 4.3; activity call = inactive
